Laboratory results taken from the supplement of paper PMC10735217.
Structures can show the parent of a compound that is named as a salt. The list shows a part of the results. This data set is noisy: repeats of one test often differ as much as different tests do.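 Human kidney-derived cells stably carry a construct in which eight TEAD-binding elements drive luciferase, measured by luminescence in a drug-repurposing library screen. A hit is any compound whose signal exceeds the plate mean by more than five robust Z scores.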

Tested on: HEK293A TEAD-LUC reporter
Experiment: TEAD-luciferase reporter activity (YAP activation), robust Z score vs plate; higher = stronger YAP/TEAD activation
Settings: 24 h

SMILES	TEAD-luciferase reporter activity (compound concentration: 200 nM)	TEAD-luciferase reporter activity (compound concentration: 2 uM)	TEAD-luciferase reporter activity (compound concentration: 10 uM)
CN1CCC(C(=O)O)(c2ccccc2)CC1	inactive: -0.381	inactive: -1.52	inactive: -1.41
CN[C@H](CC(C)C)C1(c2ccc(Cl)cc2)CCC1 [(R)-N,N-Desmethylsibutramine]	inactive: 0.185	inactive: -0.145	inactive: 0.488
CC(C)(C)NCC(O)c1ccccc1Cl (stereo unspecified) [tulobuterol (patch)]	inactive: 3.83	inactive: -0.424	inactive: -0.408
C=CCC1(C(C)CCC)C(=O)NC(=S)NC1=O (stereo unspecified) [Thiamylal]	inactive: -2.95		inactive: -1.52
Cc1ncsc1CCCl [clomethiazole, AstraZeneca]	inactive: -2.25		inactive: 4.16
Cc1ncsc1CCCl [clomethiazole]		inactive: -2	
O=C(Nc1ccc(Br)cc1)c1cc(Br)cc(Br)c1O	inactive: 2.09	inactive: -0.758	inactive: 2.27
O=c1[nH]c(N2CCNCC2)nc2ccccc12 [Centpiperalone]	inactive: -2.06	inactive: -2.4	inactive: -0.468
CC(C)(C)NCC(O)c1cc(Cl)c(N)c(Cl)c1 (stereo unspecified) [clenbuterol]		inactive: 1.44	
CC(C)(C)NCC(O)c1cc(Cl)c(N)c(Cl)c1 (stereo unspecified) [Clenbuterol]	inactive: -0.33		inactive: -0.346
CC/C=C\C/C=C\C/C=C\C/C=C\C/C=C\CCCC(=O)NCCNC(=O)c1cccnc1	active: 5.38	inactive: -0.503	inactive: -0.734
O=C(Cc1ccccc1)N1CCC(C(=O)O)(c2ccccc2)CC1	inactive: -1.44		inactive: 1.62
CN(C(=O)CNC(=O)CN)c1ccc(Cl)cc1C(=O)c1ccccc1Cl	inactive: -0.267	inactive: -1.3	inactive: 1.71
CN1C(=O)C(Cc2ccc3ccccc3c2)N=C(c2ccc(O)cc2)c2cc(Cl)ccc21 (stereo unspecified)	inactive: -1.89	inactive: -1.07	inactive: 0.893
CN1C(=O)CC(=O)N(c2ccccc2)c2cc(Cl)ccc21	inactive: -1	inactive: 0.841	inactive: 0.701
Cn1c2c(c3ccccc31)CCNCC2	inactive: 2.65	inactive: 0.518	inactive: 0.0774
CCCN(CCC)C1CCc2c(F)ccc(O)c2C1 (stereo unspecified)	inactive: 4.86	inactive: 2.79	inactive: -1.55
CCCCCCC(C)(C)c1cc(O)c2c(c1)OC(C)(C)[C@@H]1CC[C@@H](O)C[C@@H]21	inactive: 1.47	inactive: -0.842	inactive: -0.981
CC(C)[C@H](N)C(=O)N1CCC[C@H]1B(O)O [talabostat mesylate]	inactive: 3.82	inactive: -1.99	inactive: -1.27
CN1[C@@H]2CC[C@H]1C[C@@H](N1Cc3ccc4ccccc4c3C1=O)C2	inactive: -0.7	inactive: -1.43	inactive: -1.42
O=C1C=CC[C@@H]2[C@H]3CCCN4CCC[C@@H](CN12)[C@@H]34 [Sophocarpine]	inactive: 0.684	inactive: -0.579	inactive: 0.882

SMILES	TEAD-luciferase reporter activity (compound concentration: 200 nM)	TEAD-luciferase reporter activity (compound concentration: 2 uM)	TEAD-luciferase reporter activity (compound concentration: 10 uM)
CC12C=CC(=O)C=C1CCC1C2C(O)CC2(C)C(=O)CCC12 (stereo unspecified)	inactive: -2.49	inactive: -0.543	inactive: -1.24
Cn1cc(C2=NCC3(CN4CCC3CC4)O2)c2ccccc21 (stereo unspecified)	inactive: -1.15	inactive: 0.476	inactive: -0.673
c1ccc(C(Cc2noc(CCN3CCCCC3)n2)c2ccccc2)cc1	inactive: 0.704	inactive: 0.117	inactive: -0.988
O=C(O)CCCc1ccc(N(CCCl)CCCl)cc1	inactive: -1.35		inactive: -0.715
O=C(O)CCCc1ccc(N(CCCl)CCCl)cc1 [chlorambucil]		inactive: -0.397	
COc1ccc(C(O)CNC(C)Cc2ccccc2)cc1 (stereo unspecified)	inactive: 0.511	inactive: -1.57	active: 5.03
C[C@@H]1NC(C)(C)CO[C@@]1(O)c1cccc(Cl)c1 [Radafaxine hydrochloride]	active: 5.1	inactive: -1.54	inactive: 4.49
CC(C)(N)Cc1ccccc1 [Phentermine HCl]	inactive: 2.02		inactive: 1.24
O=c1cccc2n1C[C@@H]1CNC[C@H]2C1 [Cytisine]	inactive: 0.702	inactive: -0.353	inactive: -1.3
CCN(CC)CCN1C(=O)CN=C(c2ccccc2F)c2cc(Cl)ccc21 [Flurazepam]	inactive: 0.951	inactive: -0.0863	inactive: 0.975
O=[Se](=O)([O-])[O-] [Sodium selenate]	inactive: -2.43	inactive: -1.15	inactive: 2.16
C[C@H]1CC[C@@](c2ccccc2)(N2CCN(c3ccccc3)CC2)CC1	inactive: -0.0168	inactive: 0.285	inactive: -0.318
CC1CCCC(O)CCCCCc2cc(O)cc(O)c2C(=O)O1 (stereo unspecified)	inactive: 0.00694	inactive: -1.09	inactive: -0.464
CCCC(CCC)C(=O)OC1CC2CCC(C1)[N+]2(C)C(C)C (stereo unspecified) [Sintropium iodide]	inactive: -0.796	inactive: -0.576	inactive: 4.26
CCCCOC(=O)c1ccccc1OP1(=O)CO[C@H](Cn2ccc(N)nc2=O)CO1 (stereo partly specified)	inactive: -2.01	inactive: -0.104	inactive: 1.12
O=C1OC(CCN2CCCCC2)OC1(c1ccccc1)c1ccccc1 (stereo unspecified) [Pipoxolan hydrochloride]	inactive: 0.123	inactive: -1.49	inactive: -1.42
C=C1CC[C@@]2(O)[C@H]3Cc4ccc(OC5O[C@H](C(=O)O)[C@@H](O)[C@H](O)[C@H]5O)c5c4[C@@]2(CCN3CC2CC2)[C@H]1O5 (stereo partly specified) [nalmefene glucuronide]	inactive: 1.82	inactive: -2.31	inactive: 0.376
C#CCN[C@@H]1CCc2ccc(OC(=O)N(C)CC)cc21	inactive: -1.45	inactive: -0.45	inactive: 2
CN(C)CCc1ccccc1 [Dimethyl(2-phenylethyl)amine]	active: 7.28	inactive: 0.0587	inactive: -0.0199
CCOC(=O)c1c(C)cc2nc(COC(=O)NCCO)n(-c3ccccc3S(=O)(=O)NC)c(=O)c2c1C	inactive: -0.751	inactive: -1.37	inactive: -0.687
CCC1(CC)C(=O)NC(=O)N(C)C1=O	inactive: -1.55	inactive: 0.235	inactive: -0.34

SMILES	TEAD-luciferase reporter activity (compound concentration: 200 nM)	TEAD-luciferase reporter activity (compound concentration: 2 uM)	TEAD-luciferase reporter activity (compound concentration: 10 uM)
CCc1c2c(nc3ccccc13)-c1cc3c(c(=O)n1C2)COC(=O)[C@]3(O)CC	inactive: -0.709	inactive: -1.28	inactive: -1.85
N#CCC(=O)c1ccccc1	inactive: -0.837	inactive: -1.52	inactive: -0.212
C#CCN(C)[C@H](C)Cc1ccccc1	inactive: 2.65		inactive: 0.255
C#CCN(C)[C@H](C)Cc1ccccc1 [selegiline, Elan Transdermal]		inactive: -0.522	
N#CC(CCN1CCNCC1)(c1ccccc1)c1ccccc1	inactive: -2.06	inactive: -2.91	inactive: -0.624
NC1=NCC(c2ccc(Br)cc2)O1 (stereo unspecified)	inactive: 0.353	inactive: 0.917	inactive: 0.356
CNC1CCc2[nH]c3c(F)cc(F)cc3c2C1 (stereo unspecified)	inactive: -0.745	inactive: -0.98	inactive: 0.309
C[N+]1(C)C2CC(O)CC1C1OC12 (stereo unspecified)	inactive: -0.712	inactive: -0.0476	inactive: -0.677
CCn1nc(C)c2c1C(c1ccccc1)=NCC(=O)N2 [ripazepam]	inactive: -1.03	inactive: 0.147	inactive: -1.15
CC(CC(C(N)=O)(c1ccccc1)c1ccccn1)N(C)C (stereo unspecified)	inactive: 0.425	inactive: 1.76	inactive: -0.539
CC12CC[C@H]3[C@@H](CC[C@@]45O[C@@H]4C(=O)C(C#N)CC35C)[C@@H]1CC[C@@H]2O (stereo partly specified) [Trilostane]	inactive: -1.45	inactive: -1.06	inactive: 0.302
CCN(CC)C(=O)N[C@H]1C=C2c3cccc4[nH]cc(c34)C[C@H]2N(C)C1 [lisuride hydrogen maleate, Sinoxa]	inactive: 2.54	inactive: 0.572	inactive: 0.992
CC(C)=CC1C(C(=O)OCc2cccc(Oc3ccccc3)c2)C1(C)C (stereo unspecified)	inactive: -1.24	inactive: -2.31	inactive: -0.269
CC(N)(Cc1ccccc1)c1ccccc1 (stereo unspecified)	inactive: -0.763	inactive: -1.34	inactive: 0.956
CCCC(Cc1ccccc1)N1CCCC1 (stereo unspecified)	inactive: -0.57	inactive: -0.976	inactive: -1.23
Oc1ccc2c3c1O[C@H]1c4[nH]c5ccccc5c4C[C@@]4(O)[C@@H](C2)N(CC2CC2)CC[C@]314 [Naltrindole]	inactive: -0.442	inactive: -1.36	inactive: 2.43
N=C(/N=N/C(=N)NCl)NCl	inactive: -0.943	inactive: -1.64	inactive: 0.101
C[C@]12C=CC(=O)C=C1CC[C@@H]1C2CC[C@]2(C)OC(=O)CCC12 (stereo partly specified) [Testolactone]	inactive: -1.42	inactive: 1.27	inactive: 3.24
C[C@]12CCC3C(CCC4=C(Cl)C(=O)CC[C@@]43C)C1CCC2O (stereo partly specified)	inactive: 0.273	inactive: 0.783	inactive: 2.53
Cc1cccc(NC(=O)NC2N=C(C3CCCCC3)c3ccccc3N(C)C2=O)c1 (stereo unspecified)	inactive: -1.34	inactive: -0.714	inactive: 3.48

Full records as entered above. Values in the order: TEAD-luciferase reporter activity (compound concentration: 200 nM)	TEAD-luciferase reporter activity (compound concentration: 2 uM)	TEAD-luciferase reporter activity (compound concentration: 10 uM)
CCCC(CCC)C(=O)OC1CC2CCC(C1)[N+]2(C)C(C)C (stereo unspecified) [Sintropium iodide] as listed: inactive: -0.796	inactive: -0.576	inactive: 4.26
NC1=NCC(c2ccc(Br)cc2)O1 (stereo unspecified) as listed: inactive: 0.353	inactive: 0.917	inactive: 0.356
